Results from article PMC5500810.

Amino acid sequences for entries named in this document (tags omitted). A change or cut given only in a name is not applied to a line headed by its entry.
UniProt Q15375: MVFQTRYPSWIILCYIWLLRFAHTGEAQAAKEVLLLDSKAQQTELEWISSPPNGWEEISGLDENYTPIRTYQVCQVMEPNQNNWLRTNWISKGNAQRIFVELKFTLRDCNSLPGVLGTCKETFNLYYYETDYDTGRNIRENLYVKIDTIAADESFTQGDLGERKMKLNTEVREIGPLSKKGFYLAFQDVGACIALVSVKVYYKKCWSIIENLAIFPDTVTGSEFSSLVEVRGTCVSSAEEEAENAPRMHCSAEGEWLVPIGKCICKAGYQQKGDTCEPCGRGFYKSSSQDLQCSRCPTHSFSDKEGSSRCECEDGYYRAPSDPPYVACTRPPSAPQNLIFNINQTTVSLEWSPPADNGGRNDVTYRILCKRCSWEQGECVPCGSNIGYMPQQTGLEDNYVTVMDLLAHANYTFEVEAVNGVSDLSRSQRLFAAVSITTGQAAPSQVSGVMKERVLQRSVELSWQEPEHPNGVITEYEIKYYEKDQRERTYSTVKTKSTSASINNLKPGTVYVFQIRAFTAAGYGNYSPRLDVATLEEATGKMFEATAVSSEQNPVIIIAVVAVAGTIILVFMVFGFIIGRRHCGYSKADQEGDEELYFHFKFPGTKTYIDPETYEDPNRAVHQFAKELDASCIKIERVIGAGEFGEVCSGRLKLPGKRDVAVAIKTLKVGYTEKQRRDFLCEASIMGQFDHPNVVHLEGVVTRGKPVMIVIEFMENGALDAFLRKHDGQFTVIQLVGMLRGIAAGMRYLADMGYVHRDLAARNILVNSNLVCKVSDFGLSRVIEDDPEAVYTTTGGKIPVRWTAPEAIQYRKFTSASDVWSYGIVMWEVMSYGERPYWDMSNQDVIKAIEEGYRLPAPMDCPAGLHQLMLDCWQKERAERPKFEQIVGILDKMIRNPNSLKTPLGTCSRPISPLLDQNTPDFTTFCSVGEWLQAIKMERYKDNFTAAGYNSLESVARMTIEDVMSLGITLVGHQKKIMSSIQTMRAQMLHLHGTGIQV

Biological target: human EphA7 (recombinant, EphA7/ephrin-A5 competition assay) (human) (UniProt Q15375)
Assay: AlphaScreen or HTRF; competition: human EphA7 (3 nM) preincubated 1 h with increasing Nb, then biotinylated His-tagged human ephrin-A5 (30 nM); anti-IgG acceptor and streptavidin donor beads; 50 mM Hepes, 100 mM NaCl, 0.1% Triton, 0.1% BSA; both purified

B1: His-tagged human ephrin-A5 (Sino Biological), biotinylated (ligand, UniProt P52803 21-203)
chain: QDPGSKAVADRYAVYWNSSNPRFQRGDYHIDVCINDYLDVFCPHYEDSVPEDKTERYVLYMVNFDGYSACDHTSKGFKRWECNRPHSPNGPLKFSEKFQLFTPFSLGFEFRPGREYFYISSAIPDNGRRSCLKLKVFVRPTNSCMKTIGVHDRVFDVNDKVENSLEPADDTVHESAEPSRGEN
modifications: biotin on primary amines (EZ link NHS biotin)
For B1, the binding was “binds”.

Results are given in words; binding and its absence hold for the method and conditions named. Binding can be weak; no strength is given. Sequences can lack the tags named with a protein.
